# Results from the supplement of paper PMC3334620.
# The full ranking holds about 33,000 sequences; the median of “E-score (-0.5 to 0.5)” is about -0.0014, and the highest 2% start at about 0.25. The list shows a part of the results.
# Target: T1, Cad1 (UniProt P24813)
# T1 sequence: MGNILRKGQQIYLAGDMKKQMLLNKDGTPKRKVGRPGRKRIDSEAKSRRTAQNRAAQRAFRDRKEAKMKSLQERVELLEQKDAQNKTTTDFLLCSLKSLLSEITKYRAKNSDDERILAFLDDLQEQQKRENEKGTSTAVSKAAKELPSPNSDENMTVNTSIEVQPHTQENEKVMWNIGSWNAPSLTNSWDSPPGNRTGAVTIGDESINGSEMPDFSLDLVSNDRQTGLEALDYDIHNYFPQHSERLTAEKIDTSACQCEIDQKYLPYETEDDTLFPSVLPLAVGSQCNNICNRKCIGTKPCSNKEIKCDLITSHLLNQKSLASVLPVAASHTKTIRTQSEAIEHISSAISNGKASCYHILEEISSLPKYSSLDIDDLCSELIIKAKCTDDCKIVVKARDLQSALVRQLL
# Assay: PBM E-score (8-mer binding enrichment) (E-score (-0.5 to 0.5)); higher = stronger / more preferred TF binding
# Settings: protein concentration: 100 nM; construct: GST-full length
# Method: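 Universal 'all 10-mer' protein binding microarrays (Agilent AMADID 015681) probed with GST-tagged S. cerevisiae TFs (full-length or DBD) made by in vitro transcription/translation (PURExpress), about 100-200 nM. Bound TF was detected with fluorescent anti-GST. Each ungapped 8-mer (which stands for itself and its reverse complement) is scored by the PBM enrichment score (E-score), a modified Wilcoxon-Mann-Whitney statistic from -0.5 to +0.5, computed with the Universal PBM Analysis Suite. Scale: above 0.35 generally sequence-specific binding.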
row,Sequence,PBM E-score
1,GACCCGAA,-0.124
2,CCTAAGGC,-0.181
3,ACGTCCCG,-0.0437
4,GATAGGCC,-0.0295
5,GATTACCC,0.215
6,CAAAATCG,0.114
7,ACCGCCAT,-0.063
8,CTTCGCCA,-0.104
9,AAGCCCAC,-0.0637
10,CAATCATG,0.175
11,ACCATGCA,0.122
12,GATTCGCA,0.205
13,GCGAGACA,-0.205
14,CAATCATC,-0.0285
15,AGTTCTGG,0.0925
16,CACACGCC,0.0737
17,AGGCGCAT,0.0534
18,AGTCACGG,0.0469
19,CTAATTCC,0.137
20,GTCTTCTA,-0.0184
21,CGCTTTGC,0.126
22,AGAAAGGG,-0.208
23,GGCTAATA,0.123
24,CAAGCGCG,0.0798
25,AAGCAGTA,-0.0768

row,Sequence,PBM E-score
1,CACCTAAA,0.0285
2,CATGGTCA,0.106
3,GCGTAGCC,-0.11
4,ATCGAGAA,0.194
5,AGGAGGTG,-0.208
6,ACAAGCTG,0.101
7,CGAGATCC,0.0835
8,TGTTATAA,0.253
9,GCGGAGAA,0.0409
10,AATGGACA,0.056
11,ATTCACGG,0.0384
12,AGCTAGTG,-0.0897
13,GTTAAGAA,-0.0381
14,CCTCGTGA,0.016
15,AACCCAAT,-0.0923
16,CAACCCAC,0.00919
17,CCCTGTAC,-0.22
18,CCGACAAA,0.0538
19,CCGAGAAG,-0.0688
20,AGTTCACG,-0.0961
21,CCTGGCGC,0.0094
22,CAACTCCC,-0.0301
23,CGCTTCGC,-0.0714
24,AAGTTCAC,0.0544
25,ATAGTGTC,0.111

row,Sequence,PBM E-score
1,CGGTGAGC,-0.13
2,CCTGTCTA,0.0127
3,CGCAAGTA,0.182
4,AACCGAAC,0.0766
5,CCGCTCGA,-0.00781
6,GCACTTCA,0.078
7,CCTCGAAC,-0.0906
8,CTCTCGGA,0.0354
9,CATATAAA,0.0106
10,TCTGAAAA,-0.0126
11,ATGCAAAA,0.11
12,GAGCCACC,-0.208
13,CATCACCG,-0.0817
14,CGGATCTC,0.109
15,CCCATCCG,-0.125
16,CATTATGC,0.0922
17,GGGACACA,-0.066
18,CCCATATA,0.0495
19,AGTGAAAC,0.136
20,GAGTTACA,-0.00694
21,CATATGAC,0.067
22,ATATTCTC,0.102
23,ATTTCTTG,0.207
24,ACAAGGTC,-0.185
25,ATCCATCC,0.0574

row,Sequence,PBM E-score
1,GACGCAAC,0.00558
2,AAGTCCAT,-0.0274
3,GTAAGCCA,0.128
4,CATCATGC,0.0814
5,AAGCGGAA,0.137
6,AGTTAATC,0.161
7,AGTCAACG,-0.0686
8,ATGGAACG,-0.0699
9,GAAAACAC,0.0902
10,ATCCAGAC,-0.0739
11,GCACCAAA,-0.0001
12,CTTAGTAC,-0.0286
13,AGAGGTGA,-0.069
14,ACGCCCTA,-0.16
15,AGCCGTGA,0.112
16,ACAGTTAA,0.00177
17,AGTTGCGG,0.181
18,ATTAGGAC,-0.102
19,TCTTACAA,0.0371
20,CAACGAAA,0.162
21,ACGGGAGG,-0.173
22,GTTAATCA,0.318
23,CCAAGTTC,-0.121
24,GTGTTCCA,-0.115
25,CGGCCCTA,0.0924

row,Sequence,PBM E-score
1,GCCGCTCA,-0.0172
2,GTAAACTA,0.108
3,GCACCAGC,-0.0881
4,ACCCTCAG,-0.0435
5,GCGAGCGA,0.196
6,AATGTGGC,0.0121
7,AAGATACT,-0.0176
8,ATCGCATG,0.0414
9,ATAATGTG,0.15
10,ACGACAGC,-0.0181
11,AATAGATT,0.0615
12,CACCCTAG,0.111
13,CGATTAAG,0.106
14,CGTATAAG,-0.104
15,ATCTGACG,-0.142
16,CGTGTCGA,0.181
17,GCAATAAA,0.2
18,AATATACG,-0.159
19,AGCCTACC,-0.282
20,CAGGCAAC,0.00195
21,CATAACTC,-0.0187
22,CTGGTCAC,-0.0271
23,CAGGCTAC,-0.078
24,CGCATATC,0.318
25,GCCCCAGA,-0.158

row,Sequence,PBM E-score
1,CATGATCG,0.00824
2,CCACACCC,-0.0237
3,TACTCCCA,0.0842
4,ATAAATTC,0.091
5,AACAAGGT,-0.0755
6,AAGTCTAC,-0.0687
7,CCGCACTC,0.122
8,AAGCATAT,0.189
9,AACCTTCA,0.0626
10,CGGCTAGA,0.00637
11,ACCGGACA,-0.101
12,CAAAGCCC,-0.219
13,AGGAGTTG,0.031
14,ACGTGGAC,-0.0819
15,AACACTTC,0.208
16,CCCCGCGC,-0.194
17,GCCCGGGA,0.0735
18,ACCACCCT,-0.126
19,CTATGGGC,-0.0219
20,ATCGGCAC,0.154
21,GGCCTTCA,0.0667
22,AAATGGAG,0.137
23,CACGTATG,-0.0924
24,CGGAATCA,0.237
25,GCTTGTCA,0.13

row,Sequence,PBM E-score
1,CTCCCACA,-0.237
2,CGTACCGC,0.0948
3,ACACGGGA,-0.0408
4,CAATTTGG,0.0507
5,AACCGACA,0.156
6,GCCTCCCA,-0.32
7,GAACGACA,0.0743
8,GGCAGGAC,-0.024
9,CATAATGC,-0.0245
10,CACTGTAC,-0.157
11,ACGTTGCT,0.0846
12,GCACCGAC,0.0884
13,GATTTACA,0.139
14,AGTTTTTG,0.0939
15,AGATAACG,0.189
16,GGATTAGA,-0.00582
17,CACTACGA,-0.00465
18,GAAGCTGA,0.152
19,CATTTAAA,0.0964
20,CCACCGGG,-0.311
21,CCGGTTTA,-0.0764
22,AGGCCAGA,-0.0194

# Look-ups from the entries so far.
# PBM E-score, CACTACGA reads -0.00465
# PBM E-score, CACTGTAC reads -0.157
# PBM E-score, AGTTTTTG reads 0.0939
# PBM E-score, GATTTACA reads 0.139
# PBM E-score, GAACGACA reads 0.0743
# PBM E-score, GCACCGAC reads 0.0884
# PBM E-score, GCCTCCCA reads -0.32
